Measurements: the supplement of paper PMC10849652
This is one part of the list.

Chains of the proteins cited; added tags and fusions are not shown. Lines headed by an entry give the natural chain unless they say otherwise; changes in a name come on top.
UniProt Q3B7T1: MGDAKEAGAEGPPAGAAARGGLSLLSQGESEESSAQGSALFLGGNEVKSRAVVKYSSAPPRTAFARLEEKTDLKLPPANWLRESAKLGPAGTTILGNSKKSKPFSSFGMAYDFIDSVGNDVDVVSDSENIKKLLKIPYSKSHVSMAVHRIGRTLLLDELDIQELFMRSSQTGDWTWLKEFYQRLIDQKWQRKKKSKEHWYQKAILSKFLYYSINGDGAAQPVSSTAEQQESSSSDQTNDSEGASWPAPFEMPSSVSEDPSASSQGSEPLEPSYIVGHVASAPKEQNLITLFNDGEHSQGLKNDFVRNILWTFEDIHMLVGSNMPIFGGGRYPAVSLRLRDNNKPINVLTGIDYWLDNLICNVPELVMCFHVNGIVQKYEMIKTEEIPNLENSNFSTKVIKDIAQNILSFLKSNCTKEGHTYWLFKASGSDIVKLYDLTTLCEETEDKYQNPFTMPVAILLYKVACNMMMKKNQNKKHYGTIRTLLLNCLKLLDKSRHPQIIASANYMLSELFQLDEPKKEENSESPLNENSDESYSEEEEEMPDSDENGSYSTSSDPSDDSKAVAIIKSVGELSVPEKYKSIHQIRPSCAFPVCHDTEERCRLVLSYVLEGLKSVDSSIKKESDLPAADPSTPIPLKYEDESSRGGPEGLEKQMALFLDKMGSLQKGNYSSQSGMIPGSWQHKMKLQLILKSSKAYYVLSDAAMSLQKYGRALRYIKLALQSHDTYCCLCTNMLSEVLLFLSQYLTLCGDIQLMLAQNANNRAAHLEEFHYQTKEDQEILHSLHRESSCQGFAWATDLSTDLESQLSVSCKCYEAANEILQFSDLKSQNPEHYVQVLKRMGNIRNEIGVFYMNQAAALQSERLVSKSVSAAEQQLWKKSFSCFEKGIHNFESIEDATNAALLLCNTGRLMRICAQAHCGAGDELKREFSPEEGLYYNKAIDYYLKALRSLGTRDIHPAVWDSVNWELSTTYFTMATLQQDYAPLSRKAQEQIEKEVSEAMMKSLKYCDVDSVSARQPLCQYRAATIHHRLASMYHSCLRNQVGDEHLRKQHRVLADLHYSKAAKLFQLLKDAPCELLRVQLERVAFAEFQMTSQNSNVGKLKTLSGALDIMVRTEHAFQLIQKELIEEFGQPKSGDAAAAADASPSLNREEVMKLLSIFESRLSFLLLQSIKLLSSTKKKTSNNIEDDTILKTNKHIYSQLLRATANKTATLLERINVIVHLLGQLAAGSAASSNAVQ
UniProt Q9UNI6, whole entry, looked up: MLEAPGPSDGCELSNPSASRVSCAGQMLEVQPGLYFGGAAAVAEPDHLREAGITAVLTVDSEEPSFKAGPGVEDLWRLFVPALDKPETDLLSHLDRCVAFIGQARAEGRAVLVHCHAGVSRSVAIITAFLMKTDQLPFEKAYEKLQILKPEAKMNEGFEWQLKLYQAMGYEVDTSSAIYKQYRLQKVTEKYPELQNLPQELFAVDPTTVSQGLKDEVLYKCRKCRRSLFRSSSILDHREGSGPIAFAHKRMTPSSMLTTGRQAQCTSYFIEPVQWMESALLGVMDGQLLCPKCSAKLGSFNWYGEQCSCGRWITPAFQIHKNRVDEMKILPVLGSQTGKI
UniProt Q6V1X1: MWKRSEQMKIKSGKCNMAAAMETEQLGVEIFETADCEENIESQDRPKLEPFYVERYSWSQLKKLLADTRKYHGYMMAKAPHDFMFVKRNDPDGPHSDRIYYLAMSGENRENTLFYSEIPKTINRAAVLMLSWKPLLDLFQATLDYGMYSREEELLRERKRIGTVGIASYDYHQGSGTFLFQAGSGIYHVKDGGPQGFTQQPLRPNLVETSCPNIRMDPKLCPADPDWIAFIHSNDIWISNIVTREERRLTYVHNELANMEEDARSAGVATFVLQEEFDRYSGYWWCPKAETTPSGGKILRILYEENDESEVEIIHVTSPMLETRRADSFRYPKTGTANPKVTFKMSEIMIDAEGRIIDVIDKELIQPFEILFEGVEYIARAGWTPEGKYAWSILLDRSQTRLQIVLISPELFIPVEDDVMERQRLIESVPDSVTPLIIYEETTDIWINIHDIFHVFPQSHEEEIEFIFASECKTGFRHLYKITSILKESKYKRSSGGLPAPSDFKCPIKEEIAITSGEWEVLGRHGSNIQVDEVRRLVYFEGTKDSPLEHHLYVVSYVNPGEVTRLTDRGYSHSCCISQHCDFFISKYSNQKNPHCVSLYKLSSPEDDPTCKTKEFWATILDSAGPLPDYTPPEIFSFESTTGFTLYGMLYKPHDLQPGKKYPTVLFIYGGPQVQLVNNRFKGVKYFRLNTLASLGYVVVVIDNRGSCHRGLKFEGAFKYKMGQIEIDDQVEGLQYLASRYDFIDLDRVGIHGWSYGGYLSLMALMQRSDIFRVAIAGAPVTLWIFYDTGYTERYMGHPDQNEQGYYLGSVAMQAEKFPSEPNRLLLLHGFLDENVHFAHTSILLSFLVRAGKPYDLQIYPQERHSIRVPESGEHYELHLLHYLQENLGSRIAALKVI
UniProt Q7L8W6: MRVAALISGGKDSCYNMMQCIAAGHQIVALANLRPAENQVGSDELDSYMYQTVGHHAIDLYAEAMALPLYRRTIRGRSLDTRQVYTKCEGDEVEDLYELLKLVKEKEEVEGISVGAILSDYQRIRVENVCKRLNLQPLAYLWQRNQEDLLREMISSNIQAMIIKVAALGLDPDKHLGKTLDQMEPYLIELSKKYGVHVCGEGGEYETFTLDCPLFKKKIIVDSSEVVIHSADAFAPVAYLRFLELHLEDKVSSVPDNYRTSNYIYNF
UniProt Q92997: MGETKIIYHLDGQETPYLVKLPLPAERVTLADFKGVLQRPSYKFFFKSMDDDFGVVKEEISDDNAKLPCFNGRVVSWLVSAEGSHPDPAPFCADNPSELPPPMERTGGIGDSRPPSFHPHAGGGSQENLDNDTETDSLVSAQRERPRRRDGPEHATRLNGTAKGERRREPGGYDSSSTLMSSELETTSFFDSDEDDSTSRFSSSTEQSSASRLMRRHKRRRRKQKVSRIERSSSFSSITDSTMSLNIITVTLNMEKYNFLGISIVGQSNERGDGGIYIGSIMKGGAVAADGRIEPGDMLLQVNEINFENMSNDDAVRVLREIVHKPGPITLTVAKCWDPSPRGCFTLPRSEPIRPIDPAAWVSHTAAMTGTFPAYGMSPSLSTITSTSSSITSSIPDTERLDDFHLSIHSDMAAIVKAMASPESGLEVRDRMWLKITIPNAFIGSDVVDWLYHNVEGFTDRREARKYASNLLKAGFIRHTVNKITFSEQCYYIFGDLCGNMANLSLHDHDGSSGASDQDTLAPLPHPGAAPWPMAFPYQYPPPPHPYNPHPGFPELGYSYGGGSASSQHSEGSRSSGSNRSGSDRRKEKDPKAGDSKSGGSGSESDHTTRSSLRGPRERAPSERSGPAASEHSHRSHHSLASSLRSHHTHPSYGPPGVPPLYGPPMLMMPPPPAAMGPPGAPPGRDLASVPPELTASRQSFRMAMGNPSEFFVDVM
UniProt Q9NRR4: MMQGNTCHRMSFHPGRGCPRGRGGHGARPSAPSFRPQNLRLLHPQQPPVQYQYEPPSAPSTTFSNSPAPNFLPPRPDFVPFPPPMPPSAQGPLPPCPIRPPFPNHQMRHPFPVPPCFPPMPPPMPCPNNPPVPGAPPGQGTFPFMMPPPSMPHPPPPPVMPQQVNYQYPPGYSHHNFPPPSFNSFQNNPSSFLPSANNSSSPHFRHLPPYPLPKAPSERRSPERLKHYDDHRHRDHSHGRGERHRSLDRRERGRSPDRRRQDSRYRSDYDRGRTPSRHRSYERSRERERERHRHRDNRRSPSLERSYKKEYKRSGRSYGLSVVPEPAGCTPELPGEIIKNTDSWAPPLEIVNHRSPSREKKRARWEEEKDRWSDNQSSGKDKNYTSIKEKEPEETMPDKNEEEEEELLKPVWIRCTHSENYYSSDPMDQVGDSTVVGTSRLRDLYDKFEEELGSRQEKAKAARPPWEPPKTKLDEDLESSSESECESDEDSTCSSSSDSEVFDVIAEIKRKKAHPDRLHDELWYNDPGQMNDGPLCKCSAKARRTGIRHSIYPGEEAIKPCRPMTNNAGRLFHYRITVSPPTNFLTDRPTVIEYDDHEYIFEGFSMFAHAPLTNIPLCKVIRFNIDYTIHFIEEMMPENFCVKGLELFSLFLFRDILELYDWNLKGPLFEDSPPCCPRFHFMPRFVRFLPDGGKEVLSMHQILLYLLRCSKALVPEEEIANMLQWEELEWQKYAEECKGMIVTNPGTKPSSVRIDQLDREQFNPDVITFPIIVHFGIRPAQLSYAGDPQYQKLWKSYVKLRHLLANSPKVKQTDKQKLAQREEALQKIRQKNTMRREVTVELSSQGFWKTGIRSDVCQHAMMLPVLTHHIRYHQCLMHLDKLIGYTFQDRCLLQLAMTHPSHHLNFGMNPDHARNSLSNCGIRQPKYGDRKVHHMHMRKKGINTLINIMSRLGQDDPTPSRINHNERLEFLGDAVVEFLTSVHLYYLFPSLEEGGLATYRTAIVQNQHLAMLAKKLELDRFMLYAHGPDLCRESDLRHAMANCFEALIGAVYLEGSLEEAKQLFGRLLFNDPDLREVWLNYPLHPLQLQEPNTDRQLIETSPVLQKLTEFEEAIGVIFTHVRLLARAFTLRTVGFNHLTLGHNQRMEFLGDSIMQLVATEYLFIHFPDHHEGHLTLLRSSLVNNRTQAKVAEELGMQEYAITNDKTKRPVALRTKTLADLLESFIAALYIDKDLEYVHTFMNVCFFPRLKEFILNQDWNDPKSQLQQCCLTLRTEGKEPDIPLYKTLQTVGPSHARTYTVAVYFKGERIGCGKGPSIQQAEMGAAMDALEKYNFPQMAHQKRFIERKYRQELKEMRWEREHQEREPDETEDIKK
UniProt Q96DC8: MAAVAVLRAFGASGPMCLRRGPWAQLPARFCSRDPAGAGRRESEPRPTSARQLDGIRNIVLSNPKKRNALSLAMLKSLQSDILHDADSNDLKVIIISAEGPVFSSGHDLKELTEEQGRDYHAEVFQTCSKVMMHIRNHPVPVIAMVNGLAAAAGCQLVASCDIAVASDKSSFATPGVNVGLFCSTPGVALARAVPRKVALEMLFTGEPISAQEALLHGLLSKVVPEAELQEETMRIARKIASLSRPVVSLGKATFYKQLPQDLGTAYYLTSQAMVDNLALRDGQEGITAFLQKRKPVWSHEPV
UniProt Q8N5C7: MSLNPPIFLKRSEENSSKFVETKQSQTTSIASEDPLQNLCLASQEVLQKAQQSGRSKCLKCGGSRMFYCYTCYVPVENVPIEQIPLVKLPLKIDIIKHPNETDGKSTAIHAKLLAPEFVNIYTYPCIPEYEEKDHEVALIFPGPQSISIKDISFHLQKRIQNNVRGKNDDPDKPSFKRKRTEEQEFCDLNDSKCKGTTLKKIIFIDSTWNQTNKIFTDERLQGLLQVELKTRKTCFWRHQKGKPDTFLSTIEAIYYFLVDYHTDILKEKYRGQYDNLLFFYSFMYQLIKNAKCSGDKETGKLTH
UniProt O00716: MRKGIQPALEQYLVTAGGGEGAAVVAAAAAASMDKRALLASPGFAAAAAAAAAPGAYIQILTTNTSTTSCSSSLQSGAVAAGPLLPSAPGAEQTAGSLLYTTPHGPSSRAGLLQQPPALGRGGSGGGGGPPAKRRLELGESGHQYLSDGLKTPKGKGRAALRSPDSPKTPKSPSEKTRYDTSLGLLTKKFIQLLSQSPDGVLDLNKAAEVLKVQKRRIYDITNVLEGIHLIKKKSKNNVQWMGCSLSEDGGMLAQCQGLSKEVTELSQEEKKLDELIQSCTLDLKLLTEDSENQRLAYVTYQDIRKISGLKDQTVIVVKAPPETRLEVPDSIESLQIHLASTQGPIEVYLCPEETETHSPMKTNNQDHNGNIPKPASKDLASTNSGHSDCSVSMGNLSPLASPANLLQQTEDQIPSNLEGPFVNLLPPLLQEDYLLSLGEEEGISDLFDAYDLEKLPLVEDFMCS
UniProt Q9Y6G9, whole entry, looked up: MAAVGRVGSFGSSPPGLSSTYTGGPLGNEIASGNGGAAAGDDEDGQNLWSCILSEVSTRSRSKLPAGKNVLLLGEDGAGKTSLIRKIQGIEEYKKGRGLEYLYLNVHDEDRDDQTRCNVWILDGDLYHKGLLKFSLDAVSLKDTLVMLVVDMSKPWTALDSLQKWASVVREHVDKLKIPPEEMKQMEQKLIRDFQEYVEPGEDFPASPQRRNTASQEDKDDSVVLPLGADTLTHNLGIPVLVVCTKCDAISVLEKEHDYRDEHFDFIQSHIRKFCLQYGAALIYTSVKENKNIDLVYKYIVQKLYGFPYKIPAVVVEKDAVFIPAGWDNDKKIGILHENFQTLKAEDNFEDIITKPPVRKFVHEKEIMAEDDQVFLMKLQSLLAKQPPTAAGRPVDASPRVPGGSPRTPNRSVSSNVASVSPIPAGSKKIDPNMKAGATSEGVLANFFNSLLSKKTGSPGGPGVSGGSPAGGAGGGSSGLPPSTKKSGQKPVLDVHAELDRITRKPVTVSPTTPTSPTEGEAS
UniProt P47813, whole entry, looked up: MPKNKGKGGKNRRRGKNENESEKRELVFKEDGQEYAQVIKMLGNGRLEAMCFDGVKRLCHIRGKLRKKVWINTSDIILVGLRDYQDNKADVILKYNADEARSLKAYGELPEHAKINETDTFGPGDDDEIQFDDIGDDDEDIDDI

Columns and labels:
Assay in all cases: log2 fold change, soluble protein after heating vs DMSO (PISA); higher = thermal stabilisation; K562 lysate, 10 uM; active = over 0.2 and 3.5 SD of the protein, either way, in both replicates (recomputed)
lapatinib = compound: CS(=O)(=O)CCNCc1ccc(-c2ccc3ncnc(Nc4ccc(OCc5cccc(F)c5)c(Cl)c4)c3c2)o1 [lapatinib]
Procedure, shortened: (§1)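 Values give the log-two fold change in thermal stability against solvent controls, from duplicates. Crude K562 extract at 1 mg/mL protein, made by dounce homogenisation in PBS pH 7.4 with 1 mM MgCl2, was treated with 10 μM compound for 30 min. After 3 min heating across 48°C-58°C, aliquots were pooled, adjusted to 0.5% NP-40 at 4°C and centrifuged at 21,000xg for 90 min. The supernatant was measured by TMTpro 16plex LC-MS/MS with channel sums equalised.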

pictilisib = compound: CS(=O)(=O)N1CCN(Cc2cc3nc(-c4cccc5[nH]ncc45)nc(N4CCOCC4)c3s2)CC1 [pictilisib]
Procedure, shortened: as §1

crizotinib = compound: C[C@@H](Oc1cc(-c2cnn(C3CCNCC3)c2)cnc1N)c1c(Cl)ccc(F)c1Cl [crizotinib]
Procedure, shortened: as §1

[1] = compound: C[C@H](C1=CC=C(C=C1)C(=O)NC2=C3C=CNC3=NC=C2)N
Procedure, shortened: as §1

duvelisib = compound: C[C@H](Nc1ncnc2nc[nH]c12)c1cc2cccc(Cl)c2c(=O)n1-c1ccccc1 [duvelisib]
Procedure, shortened: as §1

gandotinib = compound: Cc1cc(Nc2cc(CN3CCOCC3)c3nc(C)c(Cc4ccc(Cl)cc4F)n3n2)n[nH]1 [gandotinib]
Procedure, shortened: as §1

tozasertib = compound: Cc1cc(Nc2cc(N3CCN(C)CC3)nc(Sc3ccc(NC(=O)C4CC4)cc3)n2)n[nH]1 [tozasertib]
Procedure, shortened: as §1

doramapimod = compound: Cc1ccc(-n2nc(C(C)(C)C)cc2NC(=O)Nc2ccc(OCCN3CCOCC3)c3ccccc23)cc1 [doramapimod]
Procedure, shortened: as §1

bafetinib = compound: Cc1ccc(NC(=O)c2ccc(CN3CC[C@H](N(C)C)C3)c(C(F)(F)F)c2)cc1Nc1nccc(-c2cncnc2)n1 [bafetinib]
Procedure, shortened: as §1

[2] = compound: Cc1cccc(CC(=O)N2CCc3c2ccc(-c2cn(C)c4ncnc(N)c24)c3F)n1
Procedure, shortened: as §1

nilotinib = compound: Cc1cn(-c2cc(NC(=O)c3ccc(C)c(Nc4nccc(-c5cccnc5)n4)c3)cc(C(F)(F)F)c2)cn1 [nilotinib]
Procedure, shortened: as §1

[3] = compound: Cc1nc(Nc2n[nH]c3c2CN(C(=O)N[C@H](CN(C)C)c2ccccc2)C3(C)C)c2sccc2n1
Procedure, shortened: as §1

dasatinib = compound: Cc1nc(Nc2ncc(C(=O)Nc3c(C)cccc3Cl)s2)cc(N2CCN(CCO)CC2)n1 [dasatinib]
Procedure, shortened: as §1

[4] = compound: Cc1ncc(-c2ccnc(Nc3ccc(S(C)(=O)=O)cc3)n2)n1C(C)C
Procedure, shortened: as §1

[5] = compound: Cn1cc(-c2ccc3c(c2)CCN3C(=O)Cc2cccc(C(F)(F)F)c2)c2c(N)ncnc21
Procedure, shortened: as §1

quisinostat = compound: Cn1cc(CNCC2CCN(c3ncc(C(=O)NO)cn3)CC2)c2ccccc21 [quisinostat]
Procedure, shortened: as §1

tipifarnib = compound: Cn1cncc1[C@@](N)(c1ccc(Cl)cc1)c1ccc2c(c1)c(-c1cccc(Cl)c1)cc(=O)n2C [tipifarnib]
Procedure, shortened: as §1

[6] = compound: NC(=O)Nc1cc(-c2cccc(F)c2)sc1C(=O)N[C@H]1CCCNC1
Procedure, shortened: as §1

[7] = compound: NC(=O)c1cnc(N[C@@H]2CCCC[C@@H]2N)nc1Nc1cccc(-n2nccn2)c1
Procedure, shortened: as §1

[8] = compound: NC1(c2ccc(-c3nc4ccn5c(=O)[nH]nc5c4cc3-c3ccccc3)cc2)CCC1
Procedure, shortened: as §1

Measured: log2 fold change

EDRF1 (UniProt Q3B7T1)
inactive: lapatinib -0.039 | pictilisib -0.041 | crizotinib -0.183 | [1] 0.025 | duvelisib -0.003 | gandotinib -0.02 | tozasertib 0.086 | doramapimod 0.034 | bafetinib -0.095 | [2] -0.019 | nilotinib -0.105 | [3] 0.023 | dasatinib 0.031 | [4] 0.105 | [5] -0.038 | quisinostat -0.235 | tipifarnib -0.086 | [6] 0.005 | [7] 0.038 | [8] 0.046

DUSP12 (UniProt Q9UNI6)
inactive: lapatinib -0.012 | pictilisib -0.026 | crizotinib -0.018 | [1] -0.041 | duvelisib -0.018 | gandotinib 0.013 | tozasertib -0.011 | doramapimod -0.008 | bafetinib 0.028 | [2] 0.013 | nilotinib -0.026 | [3] 0.011 | dasatinib -0.009 | [4] -0.025 | [5] 0.008 | quisinostat 0.001 | tipifarnib -0.014 | [6] 0.003 | [7] -0.02 | [8] 0.02

EIF1B (UniProt O60739)
inactive: lapatinib 0.199 | pictilisib 0.103 | crizotinib 0.098 | [1] -0.056 | duvelisib 0.262 | gandotinib -0.099 | tozasertib 0.168 | doramapimod -0.168 | bafetinib -0.015 | [2] -0.204 | nilotinib 0.251 | [3] 0.231 | dasatinib -0.267 | [4] 0.463 | [5] 0.034 | quisinostat -0.031 | tipifarnib -0.057 | [6] -0.025 | [7] -0.019 | [8] 0.039

EED, A0A5F9ZI63
inactive: lapatinib 0.047 | pictilisib -0.014 | crizotinib -0.001 | [1] -0.041 | duvelisib -0.006 | gandotinib 0.022 | tozasertib -0.01 | doramapimod 0.006 | bafetinib 0.033 | [2] 0.076 | nilotinib -0.019 | [3] 0.035 | dasatinib -0.022 | [4] -0.005 | [5] -0.027 | quisinostat 0 | tipifarnib 0.006 | [6] 0.026 | [7] -0.006 | [8] -0.015

DPP8 (UniProt Q6V1X1)
inactive: lapatinib -0.113 | pictilisib -0.094 | crizotinib 0.042 | [1] -0.159 | duvelisib 0.012 | gandotinib -0.018 | tozasertib 0.076 | doramapimod 0.085 | bafetinib -0.081 | [2] 0.027 | nilotinib 0.012 | [3] 0.053 | dasatinib -0.017 | [4] 0.01 | [5] 0.005 | quisinostat 0.033 | tipifarnib 0.01 | [6] 0.002 | [7] -0.172 | [8] -0.013

DPH6 (UniProt Q7L8W6)
inactive: lapatinib -0.014 | pictilisib 0.014 | crizotinib 0.014 | [1] -0.06 | duvelisib 0.008 | gandotinib 0.019 | tozasertib 0.041 | doramapimod 0.015 | bafetinib 0.054 | [2] 0.014 | nilotinib -0.032 | [3] 0.008 | dasatinib 0.006 | [4] -0.014 | [5] 0.022 | quisinostat 0.045 | tipifarnib 0.014 | [6] 0.018 | [7] 0.034 | [8] 0.018

EEF1AKNMT (UniProt Q8N6R0)
inactive: lapatinib -0.006 | pictilisib -0.046 | crizotinib -0.123 | [1] 0.017 | duvelisib 0.03 | gandotinib -0.133 | tozasertib -0.029 | doramapimod 0.074 | bafetinib -0.014 | [2] -0.024 | nilotinib 0.006 | [3] -0.008 | dasatinib -0.044 | [4] -0.011 | [5] 0.043 | quisinostat -0.093 | tipifarnib -0.003 | [6] 0.045 | [7] -0.013 | [8] 0.01

DVL3 (UniProt Q92997)
inactive: lapatinib -0.055 | pictilisib -0.055 | crizotinib -0.138 | [1] -0.311 | gandotinib 0.132 | tozasertib 0.042 | doramapimod 0.175 | bafetinib 0.047 | [2] 0.194 | nilotinib 0.017 | [3] 0.057 | [4] -0.073 | quisinostat 0.095 | tipifarnib 0.025 | [6] 0.026 | [7] -0.052 | [8] -0.003

EI24 (UniProt O14681)
inactive: lapatinib -0.045 | pictilisib -0.007 | crizotinib 0.013 | [1] 0.123 | duvelisib -0.033 | gandotinib -0.115 | tozasertib 0.003 | doramapimod -0.161 | bafetinib -0.021 | [2] -0.066 | nilotinib -0.055 | [3] -0.018 | dasatinib 0.043 | [4] 0.018 | [5] 0.034 | quisinostat -0.014 | tipifarnib -0.009 | [6] -0.075 | [7] 0.011 | [8] 0.017

DROSHA (UniProt Q9NRR4)
inactive: lapatinib -0.007 | pictilisib 0.073 | crizotinib 0.061 | [1] 0.019 | duvelisib 0.002 | gandotinib -0.156 | tozasertib 0.012 | doramapimod 0.023 | bafetinib -0.063 | [2] -0.119 | nilotinib -0.083 | [3] -0.03 | dasatinib -0.021 | [4] 0.009 | [5] 0.012 | quisinostat -0.043 | tipifarnib 0.026 | [6] 0.01 | [7] 0.035 | [8] 0.065

ECHDC3 (UniProt Q96DC8)
inactive: lapatinib 0.012 | pictilisib -0.011 | crizotinib 0.002 | [1] 0.009 | duvelisib 0.021 | gandotinib 0.003 | tozasertib 0.187 | doramapimod -0.06 | bafetinib -0.021 | [2] -0.069 | nilotinib -0.023 | [3] 0.051 | dasatinib 0.018 | [4] -0.035 | [5] 0.038 | quisinostat 0.044 | tipifarnib -0.034 | [6] 0.036 | [7] 0 | [8] 0.011

DTWD1 (UniProt Q8N5C7)
inactive: lapatinib -0.049 | pictilisib -0.049 | crizotinib 0 | [1] 0.015 | duvelisib 0.06 | gandotinib -0.07 | tozasertib -0.075 | doramapimod 0.035 | bafetinib 0.002 | [2] 0.092 | nilotinib 0.007 | [3] -0.039 | dasatinib -0.034 | [4] 0.01 | [5] -0.02 | quisinostat -0.067 | tipifarnib -0.007 | [6] 0.002 | [7] -0.008 | [8] 0.049

E2F3 (UniProt O00716)
inactive: lapatinib 0.048 | pictilisib 0.048 | crizotinib -0.109 | [1] 0 | duvelisib 0.099 | gandotinib 0.088 | tozasertib 0.085 | doramapimod 0.04 | bafetinib -0.098 | [2] 0.076 | nilotinib -0.007 | [3] -0.201 | dasatinib 0.001 | [4] 0.116 | [5] 0.039 | quisinostat 0.015 | tipifarnib 0 | [6] 0.007 | [7] 0.025 | [8] -0.027

EHMT2 (UniProt A2ABF8)
inactive: lapatinib -0.018 | pictilisib -0.029 | crizotinib -0.092 | [1] -0.017 | duvelisib -0.017 | gandotinib -0.007 | tozasertib 0.02 | doramapimod 0.008 | bafetinib -0.044 | [2] 0.023 | nilotinib -0.014 | [3] -0.008 | dasatinib 0 | [4] -0.026 | [5] 0.004 | quisinostat -0.084 | tipifarnib 0.012 | [6] 0.033 | [7] -0.026 | [8] 0.041

DYNC1LI1 (UniProt Q9Y6G9)
inactive: lapatinib 0.001 | pictilisib 0.025 | crizotinib -0.004 | [1] -0.014 | duvelisib 0.019 | gandotinib -0.052 | tozasertib 0.006 | doramapimod -0.016 | bafetinib 0.01 | [2] 0.007 | nilotinib 0.014 | [3] 0.022 | dasatinib -0.011 | [4] 0.025 | [5] 0.014 | quisinostat 0.009 | tipifarnib -0.019 | [6] 0.005 | [7] 0.001 | [8] -0.013

Pulled one by one from the list above (2):
DYNC1LI1 (UniProt Q9Y6G9)
inactive: lapatinib 0.001 | pictilisib 0.025 | crizotinib -0.004 | [1] -0.014 | duvelisib 0.019 | gandotinib -0.052 | tozasertib 0.006 | doramapimod -0.016 | bafetinib 0.01 | [2] 0.007 | nilotinib 0.014 | [3] 0.022 | dasatinib -0.011 | [4] 0.025 | [5] 0.014 | quisinostat 0.009 | tipifarnib -0.019 | [6] 0.005 | [7] 0.001 | [8] -0.013

DTWD1 (UniProt Q8N5C7)
inactive: lapatinib -0.049 | pictilisib -0.049 | crizotinib 0 | [1] 0.015 | duvelisib 0.06 | gandotinib -0.07 | tozasertib -0.075 | doramapimod 0.035 | bafetinib 0.002 | [2] 0.092 | nilotinib 0.007 | [3] -0.039 | dasatinib -0.034 | [4] 0.01 | [5] -0.02 | quisinostat -0.067 | tipifarnib -0.007 | [6] 0.002 | [7] -0.008 | [8] 0.049

Further results follow.

EIF1AX (UniProt P47813)
inactive: lapatinib 0.122 | pictilisib 0.052 | crizotinib 0.006 | [1] 0.008 | duvelisib -0.031 | gandotinib -0.028 | tozasertib -0.019 | doramapimod -0.033 | bafetinib 0.107 | [2] -0.026 | nilotinib 0.041 | [3] 0.103 | dasatinib 0.042 | [4] 0.04 | [5] -0.042 | quisinostat 0.103 | tipifarnib -0.042 | [6] -0.064 | [7] 0.004 | [8] -0.005
